# Source: PubChem BioAssay AID540256 (National Center for Advancing Translational Sciences (NCATS), 2011)
# In all, about 300,000 compounds went through this assay and about 3,700 (1.2%) were called active. Inconclusive means that the source gave no clear call. Such entries were picked first, then a sample of the others. The call rests on the fitted dose curve; tested in HEK293 cells. A potency beside an inconclusive call is a rough fit, not a confirmed value.
# Test: qHTS for Inhibitors of binding or entry into cells for Lassa Virus; further: nearly all actives have a fitted effect of over 50% in size
# Conditions: Lassa virus pseudotype entry inhibition, cell reporter; activity change, negative = inhibition: at 37.9 µM (top of the series) unless noted
# On the % scale 0 is the no-effect control and ±100 the full control effect; potency means the concentration at half of the fitted maximal effect.
Structure (SMILES),Potency,"activity change, negative = inhibition"
Cc1cccc(NS(=O)(=O)c2ccc(NC(=O)N3CCCCC3)cc2)c1,"inconclusive: 35.5 µM [inhibitor, single point]",–
CCN(CC)S(=O)(=O)c1ccc(C)c(NC(=O)COc2ccc(Cl)cc2Br)c1,"inconclusive: 3.16 µM [inhibitor, single point]",–
CCOC(=O)c1c(C)n(C)c2ccc(O)c(CN3CCC(C)CC3)c12,"inconclusive: 14.1 µM [inhibitor, single point]",–
CN(C)CCNc1ncnc2c1cnn2-c1cccc(Cl)c1,"inconclusive: 35.5 µM [activator, single point]",–
CCN(C(=O)CSc1ncnc2sc(C)c(C)c12)C1CCS(=O)(=O)C1 (stereo not given),"inconclusive: 25.1 µM [inhibitor, partial curve, poor fit]",–
Cc1c(C(=O)Nc2ccc(C(=O)O)cc2)nnn1-c1ccccc1,"inconclusive: 22.4 µM [inhibitor, single point]",–
COc1ccc(NC(=O)CSc2nn3c(=O)c(C)nnc3s2)cc1,–,inactive: -3.67% [at 46.1 µM]
O=C(Nc1nc2n(n1)C(c1ccc(F)cc1)C=C(c1ccccc1)N2)c1ccco1 (stereo not given),–,inactive: -11.1% [at 46.1 µM]
CCN1/C(=C/C(C)=C/c2sc3ccccc3[n+]2CC)Sc2ccccc21,active: 1.12 µM,–
Cc1c(C(C)O)nnn1-c1nonc1N (stereo not given),"inconclusive: 3.55 µM [inhibitor, partial curve, poor fit]",–
O=[N+]([O-])c1ccc(CSc2ccc(S(=O)(=O)N3CCCCCC3)cn2)cc1,"inconclusive: 8.91 µM [inhibitor, partial curve, poor fit]",–
CC(=O)Nc1cccc(C(=O)OCC(=O)NC(=O)c2ccccc2)c1,"inconclusive: 15.8 µM [activator, single point]",–
CCCCSc1nnc2c(n1)OC(c1ccc(Br)s1)N(C(C)=O)c1ccccc1-2 (stereo not given),–,inactive: 2.42% [at 46.1 µM]
CCN(CC)S(=O)(=O)c1ccc(C(=O)OC2CCCCC2CN(C)C)cc1 (stereo not given),–,inactive: -2%
N/C(=N\OC(=O)Oc1ccccc1)c1ccc([N+](=O)[O-])cc1,"inconclusive: 2.31 µM [inhibitor, partial curve, poor fit]",–
O=C(O)c1cccc(N/N=C/c2ccc(F)c(F)c2)c1,active: 3.98 µM,–
CS(=O)(=O)c1ccc(Cl)c(NC(=O)CCCSc2ccccc2)c1,"inconclusive: 0.794 µM [inhibitor, full curve, poor fit]",–
c1ccc(-c2nnc(NC3=NCCC3)o2)cc1,active: 7.08 µM,–
CCOC(=O)c1c(O)c2cc(Cl)ccc2n(CC)c1=O,–,inactive: -0.531%
CN(Cc1ccc(F)cc1)C(=O)c1cccc(NS(=O)(=O)c2ccccc2)c1,"inconclusive: 35.5 µM [inhibitor, single point]",–
COc1ccc(N2C(=O)c3ccccc3NC23C(=O)N(C)c2ccccc23)cc1 (stereo not given),–,inactive: -1.1%
CCN(CC)S(=O)(=O)c1ccc(N2CCN(c3cccc(OC)c3)CC2)c([N+](=O)[O-])c1,–,inactive: -6.56%
CN(C)/C=N/c1nc(-c2ccc3c(c2)OCO3)cs1,"inconclusive: 14.1 µM [activator, single point]",–
N#Cc1ccc(/C=N/NC(=O)c2cc(-c3cccs3)nc3ccccc23)cc1,"inconclusive: 6.31 µM [inhibitor, single point]",–

# Entries of single compounds from above.
# CN(C)/C=N/c1nc(-c2ccc3c(c2)OCO3)cs1 as listed: Potency: inconclusive: 14.1 µM [activator, single point]
# c1ccc(-c2nnc(NC3=NCCC3)o2)cc1 as listed: Potency: active: 7.08 µM
# Cc1cccc(NS(=O)(=O)c2ccc(NC(=O)N3CCCCC3)cc2)c1 as listed: Potency: inconclusive: 35.5 µM [inhibitor, single point]
# Cc1c(C(C)O)nnn1-c1nonc1N (stereo not given) as listed: Potency: inconclusive: 3.55 µM [inhibitor, partial curve, poor fit]

# (further entries)

Structure (SMILES),Potency,"activity change, negative = inhibition"
COc1ccc(NC(=O)CN2C(=O)COc3ccc(S(=O)(=O)N4CCCCCC4)cc32)cc1,–,inactive: -18.7% [at 46.1 µM]
Cc1sc(NC(=O)/C=C/c2ccco2)c(C(=O)O)c1C,"inconclusive: 35.5 µM [inhibitor, single point]",–
O=c1[nH]c(C2CCCN(S(=O)(=O)c3ccccc3)C2)nc2c1nnn2Cc1ccccc1 (stereo not given),"inconclusive: 29.1 µM [inhibitor, single point]",–
Cc1c(Cl)cccc1NC(=S)NCCCN(C)C,–,inactive: 8.76%
O=[N+]([O-])c1ccc(N2CCCC2)cc1N1CCCC1,"inconclusive: 29.1 µM [inhibitor, single point]",–
Cc1ccc(S(=O)(=O)N(C)C)cc1NC(=S)NC(=O)C12CC3CC(CC(C3)C1)C2,–,inactive: -16.8%
O=C(NCCSc1c(-c2ccccc2)[nH]c2ccccc12)c1cc2ccccc2oc1=O,"inconclusive: 18.4 µM [activator, single point]",–
Cc1cccc(Nc2ccc3nonc3c2[N+](=O)[O-])c1C,–,inactive: 3.81%
Cc1ccc(Nc2c(-c3ccccc3O)nc3cnccn23)cc1,"inconclusive: 11.2 µM [inhibitor, single point]",–
O=C(O)CSc1cnc2ccccc2n1,–,inactive: -0.606%
Cc1cccc(CCNS(=O)(=O)c2ccc(S(=O)(=O)NC3CCCC3)cc2)c1,"inconclusive: 14.6 µM [inhibitor, partial curve, poor fit]",–
C=CCn1c(N)c(C(=O)NC2CCCCC2)sc1=S,"inconclusive: 29.1 µM [inhibitor, single point]",–
Cc1cccc(C)c1Nc1nn2c(=O)c3cc4c(cc3nc2s1)OCO4,–,inactive: 21.7% [at 46.1 µM]
Brc1ccc2c(c1)OCCOCCOc1cc(Br)ccc1OCCOCCOCCO2,"inconclusive: 31.6 µM [inhibitor, single point]",–
CCOC(=O)CCNC(=O)N1CCCC(C(=O)c2cc(C)c(OC)c(C)c2)C1 (stereo not given),"inconclusive: 35.5 µM [inhibitor, single point]",–
O=C(N/N=C/c1ccc(-c2ccc([N+](=O)[O-])cc2)o1)[C@H]1C[C@@H]1c1ccccc1,"inconclusive: 3.98 µM [inhibitor, full curve, poor fit]",–
CCn1cc(C(=O)NCc2ccco2)c(=O)c2cc(S(=O)(=O)N3CCc4ccccc4C3)ccc21,–,inactive: -21%
C/C(CCc1ccc2c(c1)OCO2)=N\NC(=O)c1ccccc1Cl,–,inactive: 3.99%
COc1cc(NC(=O)c2ccc(-c3csc(C)n3)cc2)c(OC)cc1Cl,–,inactive: 3.71% [at 46.1 µM]
CCOc1ccc(CCNC(=O)CN2CCN(Cc3ccc(Cl)cc3)C2=O)cc1OCC,–,inactive: 1.03% [at 46.1 µM]
O=C(Nc1nc(-c2cccnc2)cs1)c1ccccc1F,"inconclusive: 0.794 µM [activator, single point]",–
COC(=O)c1[nH]c2ccc(F)cc2c1NS(=O)(=O)c1ccc(F)c(C)c1,"inconclusive: 23.1 µM [inhibitor, partial curve, poor fit]",–
CC(C)C(NC(=O)c1ccc(Cl)cc1)C(=O)NCC1CCCO1 (stereo not given),–,inactive: 3.75% [at 46.1 µM]
CCOC(=O)c1ccc(N2C(=O)c3n[nH]c(-c4ccco4)c3C2c2ccc(C)cc2)cc1 (stereo not given),"inconclusive: 12.6 µM [inhibitor, partial curve]",–

Structure (SMILES),Potency,"activity change, negative = inhibition"
O=C(CSc1ncn[nH]1)Nc1cccc(S(=O)(=O)N2CCCCCC2)c1,"inconclusive: 20.6 µM [inhibitor, single point]",–
O=C(N/N=C/c1c(Cl)cccc1Cl)c1ccccc1F,"inconclusive: 29.1 µM [activator, partial curve, poor fit]",–
O=C(CSc1ccc(-c2ccco2)nn1)c1ccccc1,–,inactive: 17.1%
Cc1cc(C)c(/C=N/NC(N)=O)c(C)c1/C=N/NC(N)=O,–,inactive: -0.784%
CCCC1(c2ccccc2)NC(=O)N(CC(=O)Nc2sc(-c3ccccc3)cc2C(=O)OCC)C1=O (stereo not given),"inconclusive: 31.6 µM [inhibitor, single point]",–
CCc1ccc(S(=O)(=O)N(C(=O)c2ccncc2)c2ccc3oc(C)c(C(=O)OC)c3c2)cc1,"inconclusive: 5.01 µM [inhibitor, partial curve]",–
COc1ccc(CC(=O)N2CCc3cc(OC)c(OC)cc3C2COc2cc(C)cc(C)c2)cc1OC (stereo not given),"inconclusive: 0.562 µM [inhibitor, full curve, poor fit]",–
CSCC[C@H](NC(=O)[C@@H]1Cc2ccccc2CN1)C(=O)Nc1ccc2c(c1)OCO2,"inconclusive: 35.5 µM [activator, single point]",–
COc1cccc(Cn2c(Oc3cc(C)cc(C)c3)nc3c2c(=O)n(C)c(=O)n3C)c1,"inconclusive: 7.08 µM [inhibitor, full curve]",–
CN1CCN(c2ccc(Cl)cc2NC(=O)/C=C/c2cccc(F)c2)CC1,–,inactive: -15.1% [at 46.1 µM]
COc1nccnc1NS(=O)(=O)c1ccc(N/C=C2\CCCCC2=O)cc1,–,inactive: 5.67% [at 46.1 µM]
Cc1ccc2[nH]nc(C(=O)N3CCCC(C(=O)c4ccc(Cl)cc4)C3)c2c1 (stereo not given),"inconclusive: 15.8 µM [inhibitor, partial curve, poor fit]",–
Cc1ccccc1NC(=O)CNC(=O)c1ccc(C(F)(F)F)cc1,"inconclusive: 5.62 µM [inhibitor, single point]",–
c1ccc(C(c2ccccc2)c2nc(-c3cccnc3)no2)cc1,–,inactive: 6.49%
O=C(Nc1ccc(S(=O)(=O)NCCc2ccccc2)cc1)c1ccc(Br)o1,"inconclusive: 16.4 µM [inhibitor, single point]",–
COc1ccc(C(=O)N[C@H](C(=O)OCc2nc3ccsc3c(=O)[nH]2)C(C)C)cc1,"inconclusive: 0.0891 µM [activator, full curve, poor fit]",–
CCOc1cc(/C=C(\CC(=O)O)c2nc3ccccc3s2)ccc1OC,–,inactive: 0.901%
CCN(CC)S(=O)(=O)c1ccc(N2CCCC2)c(NC(=O)c2ccc(OC)cc2OC)c1,"inconclusive: 35.5 µM [inhibitor, partial curve, poor fit]",–
COc1ccc2sc(N(Cc3cccnc3)C(=O)c3ccc4c(c3)OCCO4)nc2c1,"inconclusive: 6.31 µM [inhibitor, full curve, poor fit]",–
CCOC(=O)Cc1csc(NC(NC(=O)CC)(C(F)(F)F)C(F)(F)F)n1,"inconclusive: 3.98 µM [inhibitor, partial curve, poor fit]",–
Cc1oc(-c2ccccc2F)nc1CS(=O)(=O)CC(=O)NCCN1CCCC1,–,inactive: 5.12% [at 46.1 µM]
Cc1cccc(-n2cc(-c3ccccc3)c3c(N4CCOCC4)ncnc32)c1,"inconclusive: 17.8 µM [inhibitor, single point]",–
